Source: paper PMC5142787
Results are given in words; binding and its absence hold for the method and conditions named. In cells and extracts the contact can be indirect. These calls come from enrichment with a bait or labelling near it, and not all partners need be listed.

Protein sequences, listed by entry. Tags and fused reporters are not part of them. Lines headed by an entry give the natural chain unless they say otherwise; changes in a name come on top.
UniProt A8B2G6: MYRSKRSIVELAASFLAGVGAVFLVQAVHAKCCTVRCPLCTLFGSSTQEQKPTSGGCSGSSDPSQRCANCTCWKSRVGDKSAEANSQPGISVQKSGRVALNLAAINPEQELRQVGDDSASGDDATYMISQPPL
UniProt A8B8F2: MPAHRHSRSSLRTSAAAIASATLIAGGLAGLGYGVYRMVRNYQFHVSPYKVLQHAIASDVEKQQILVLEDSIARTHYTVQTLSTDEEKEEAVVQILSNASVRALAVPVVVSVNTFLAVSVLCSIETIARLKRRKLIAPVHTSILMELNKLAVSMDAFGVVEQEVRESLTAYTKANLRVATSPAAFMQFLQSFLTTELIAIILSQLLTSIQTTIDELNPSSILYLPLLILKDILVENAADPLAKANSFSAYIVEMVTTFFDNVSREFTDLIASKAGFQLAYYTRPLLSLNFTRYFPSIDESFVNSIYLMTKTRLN
UniProt A8BBQ8: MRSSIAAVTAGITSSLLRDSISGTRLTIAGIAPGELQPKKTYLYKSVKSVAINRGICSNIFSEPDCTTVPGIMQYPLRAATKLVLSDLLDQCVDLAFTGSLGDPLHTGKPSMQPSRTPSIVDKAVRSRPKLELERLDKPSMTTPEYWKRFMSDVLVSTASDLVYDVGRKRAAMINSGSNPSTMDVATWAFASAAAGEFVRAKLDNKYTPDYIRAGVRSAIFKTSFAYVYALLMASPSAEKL
UniProt A8BCH8: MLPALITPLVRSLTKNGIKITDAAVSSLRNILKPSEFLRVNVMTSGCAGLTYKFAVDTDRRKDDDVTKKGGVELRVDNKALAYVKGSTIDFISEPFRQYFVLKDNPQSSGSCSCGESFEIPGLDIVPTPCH
UniProt A0A644F9M5: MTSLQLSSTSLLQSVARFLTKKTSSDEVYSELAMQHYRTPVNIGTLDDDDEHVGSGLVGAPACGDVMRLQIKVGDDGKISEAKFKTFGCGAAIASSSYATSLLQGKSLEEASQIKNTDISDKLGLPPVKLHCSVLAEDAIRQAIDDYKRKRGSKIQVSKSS
UniProt A8BI30: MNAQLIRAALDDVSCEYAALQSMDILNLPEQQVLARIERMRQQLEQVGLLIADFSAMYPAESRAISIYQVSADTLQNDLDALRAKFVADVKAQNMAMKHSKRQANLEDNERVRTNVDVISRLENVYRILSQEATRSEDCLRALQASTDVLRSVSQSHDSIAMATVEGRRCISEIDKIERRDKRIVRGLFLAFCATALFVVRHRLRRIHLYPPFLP
UniProt A8B8T7: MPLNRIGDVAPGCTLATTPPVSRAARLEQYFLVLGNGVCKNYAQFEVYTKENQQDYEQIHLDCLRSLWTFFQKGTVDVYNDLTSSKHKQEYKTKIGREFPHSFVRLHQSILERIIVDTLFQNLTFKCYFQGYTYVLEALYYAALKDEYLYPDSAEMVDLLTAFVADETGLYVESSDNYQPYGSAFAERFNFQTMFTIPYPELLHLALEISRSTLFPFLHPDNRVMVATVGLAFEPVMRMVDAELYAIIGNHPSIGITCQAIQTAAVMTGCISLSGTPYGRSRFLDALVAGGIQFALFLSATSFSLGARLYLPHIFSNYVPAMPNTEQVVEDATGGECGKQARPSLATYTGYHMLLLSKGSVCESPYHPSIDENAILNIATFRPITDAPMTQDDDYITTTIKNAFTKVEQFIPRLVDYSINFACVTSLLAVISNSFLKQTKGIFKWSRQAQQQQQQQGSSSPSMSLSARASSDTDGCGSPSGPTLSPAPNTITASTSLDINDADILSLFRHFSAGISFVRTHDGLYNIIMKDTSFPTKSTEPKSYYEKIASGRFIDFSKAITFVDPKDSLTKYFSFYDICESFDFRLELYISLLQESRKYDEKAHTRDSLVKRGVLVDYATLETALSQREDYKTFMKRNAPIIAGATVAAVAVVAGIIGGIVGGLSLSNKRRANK
UniProt A8BZ59: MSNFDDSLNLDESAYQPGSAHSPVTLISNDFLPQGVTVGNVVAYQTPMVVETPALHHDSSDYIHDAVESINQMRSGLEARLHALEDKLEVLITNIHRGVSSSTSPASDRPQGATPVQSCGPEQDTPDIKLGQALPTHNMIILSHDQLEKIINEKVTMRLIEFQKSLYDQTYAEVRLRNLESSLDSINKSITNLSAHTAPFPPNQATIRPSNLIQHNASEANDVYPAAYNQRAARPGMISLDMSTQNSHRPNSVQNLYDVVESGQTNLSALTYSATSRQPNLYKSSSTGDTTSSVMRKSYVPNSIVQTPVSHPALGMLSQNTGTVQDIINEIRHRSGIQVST
UniProt A8B6Z3: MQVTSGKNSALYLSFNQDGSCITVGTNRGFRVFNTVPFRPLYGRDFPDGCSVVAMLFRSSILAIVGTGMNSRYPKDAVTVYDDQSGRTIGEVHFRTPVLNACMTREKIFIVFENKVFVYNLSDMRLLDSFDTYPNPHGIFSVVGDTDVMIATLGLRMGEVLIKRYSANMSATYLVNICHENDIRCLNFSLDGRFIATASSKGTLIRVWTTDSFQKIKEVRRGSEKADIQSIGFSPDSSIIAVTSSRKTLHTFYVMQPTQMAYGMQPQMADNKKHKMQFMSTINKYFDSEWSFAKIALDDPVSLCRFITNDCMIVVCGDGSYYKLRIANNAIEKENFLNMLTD
UniProt A8BBT5: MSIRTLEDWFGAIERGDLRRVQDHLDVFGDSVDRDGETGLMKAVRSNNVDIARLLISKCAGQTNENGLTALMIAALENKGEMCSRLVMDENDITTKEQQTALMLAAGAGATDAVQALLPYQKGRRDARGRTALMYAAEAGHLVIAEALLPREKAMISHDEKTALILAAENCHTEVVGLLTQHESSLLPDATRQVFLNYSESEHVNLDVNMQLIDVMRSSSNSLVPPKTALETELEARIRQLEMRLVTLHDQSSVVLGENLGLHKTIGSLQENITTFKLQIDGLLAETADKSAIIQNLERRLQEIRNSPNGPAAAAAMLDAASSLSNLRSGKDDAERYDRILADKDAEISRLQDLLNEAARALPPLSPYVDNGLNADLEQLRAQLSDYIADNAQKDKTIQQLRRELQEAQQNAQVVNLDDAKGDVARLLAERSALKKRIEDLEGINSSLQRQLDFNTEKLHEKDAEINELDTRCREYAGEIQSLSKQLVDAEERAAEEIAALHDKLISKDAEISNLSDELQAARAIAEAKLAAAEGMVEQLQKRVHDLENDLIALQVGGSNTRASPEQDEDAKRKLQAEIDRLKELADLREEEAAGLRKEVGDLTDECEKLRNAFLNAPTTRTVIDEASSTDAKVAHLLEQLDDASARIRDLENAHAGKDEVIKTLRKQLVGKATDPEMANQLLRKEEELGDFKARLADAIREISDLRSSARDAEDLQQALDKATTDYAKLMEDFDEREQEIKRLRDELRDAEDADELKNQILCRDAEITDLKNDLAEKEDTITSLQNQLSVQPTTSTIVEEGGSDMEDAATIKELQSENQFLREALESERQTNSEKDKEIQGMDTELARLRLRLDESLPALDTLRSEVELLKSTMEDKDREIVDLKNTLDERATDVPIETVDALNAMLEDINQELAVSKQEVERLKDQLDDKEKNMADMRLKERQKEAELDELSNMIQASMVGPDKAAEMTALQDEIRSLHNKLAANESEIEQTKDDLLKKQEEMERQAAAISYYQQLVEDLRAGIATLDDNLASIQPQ
UniProt E2RU04: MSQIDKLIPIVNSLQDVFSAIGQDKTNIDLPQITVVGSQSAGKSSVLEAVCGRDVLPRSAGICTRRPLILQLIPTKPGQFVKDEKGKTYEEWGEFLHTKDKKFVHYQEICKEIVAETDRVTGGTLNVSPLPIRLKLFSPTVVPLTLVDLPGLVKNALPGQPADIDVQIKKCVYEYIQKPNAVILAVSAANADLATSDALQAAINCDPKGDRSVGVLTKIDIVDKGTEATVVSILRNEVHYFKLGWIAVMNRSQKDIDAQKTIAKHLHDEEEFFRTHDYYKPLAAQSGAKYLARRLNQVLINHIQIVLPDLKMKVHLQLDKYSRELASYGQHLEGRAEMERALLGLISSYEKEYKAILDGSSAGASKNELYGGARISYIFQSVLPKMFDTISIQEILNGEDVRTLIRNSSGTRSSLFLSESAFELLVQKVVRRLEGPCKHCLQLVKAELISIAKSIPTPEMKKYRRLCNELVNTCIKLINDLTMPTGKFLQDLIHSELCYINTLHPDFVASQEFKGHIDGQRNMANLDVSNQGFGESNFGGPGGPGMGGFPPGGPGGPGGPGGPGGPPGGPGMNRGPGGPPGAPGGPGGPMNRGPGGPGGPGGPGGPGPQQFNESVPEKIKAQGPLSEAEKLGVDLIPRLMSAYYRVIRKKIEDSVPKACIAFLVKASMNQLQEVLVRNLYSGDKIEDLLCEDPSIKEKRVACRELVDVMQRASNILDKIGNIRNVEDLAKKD
UniProt D3KGB2: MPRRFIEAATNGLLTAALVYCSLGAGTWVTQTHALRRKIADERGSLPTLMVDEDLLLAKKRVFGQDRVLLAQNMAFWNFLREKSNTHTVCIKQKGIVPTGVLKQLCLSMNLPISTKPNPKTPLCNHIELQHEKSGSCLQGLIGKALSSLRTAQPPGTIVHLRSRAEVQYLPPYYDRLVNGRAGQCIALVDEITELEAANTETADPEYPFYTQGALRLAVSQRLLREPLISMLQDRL
UniProt A8BBD0: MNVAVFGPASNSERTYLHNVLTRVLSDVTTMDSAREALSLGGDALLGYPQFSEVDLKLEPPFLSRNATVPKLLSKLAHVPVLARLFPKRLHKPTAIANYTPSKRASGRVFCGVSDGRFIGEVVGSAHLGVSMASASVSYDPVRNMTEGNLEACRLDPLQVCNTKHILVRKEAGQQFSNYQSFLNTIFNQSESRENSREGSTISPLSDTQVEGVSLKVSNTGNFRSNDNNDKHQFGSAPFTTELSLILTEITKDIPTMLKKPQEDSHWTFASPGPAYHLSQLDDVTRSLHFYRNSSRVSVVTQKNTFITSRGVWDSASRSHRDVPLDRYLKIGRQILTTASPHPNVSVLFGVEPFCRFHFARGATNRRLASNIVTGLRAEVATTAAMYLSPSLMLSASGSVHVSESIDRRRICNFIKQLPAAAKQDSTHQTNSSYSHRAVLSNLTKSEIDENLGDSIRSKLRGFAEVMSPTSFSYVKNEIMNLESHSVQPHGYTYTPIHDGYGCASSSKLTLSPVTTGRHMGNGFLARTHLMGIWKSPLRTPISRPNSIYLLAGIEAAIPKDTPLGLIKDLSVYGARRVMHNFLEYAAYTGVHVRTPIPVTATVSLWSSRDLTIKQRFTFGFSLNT
UniProt E2RU02: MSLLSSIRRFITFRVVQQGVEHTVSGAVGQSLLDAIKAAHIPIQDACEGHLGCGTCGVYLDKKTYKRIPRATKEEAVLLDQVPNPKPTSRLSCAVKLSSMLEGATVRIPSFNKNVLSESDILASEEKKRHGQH
UniProt E2RTS2: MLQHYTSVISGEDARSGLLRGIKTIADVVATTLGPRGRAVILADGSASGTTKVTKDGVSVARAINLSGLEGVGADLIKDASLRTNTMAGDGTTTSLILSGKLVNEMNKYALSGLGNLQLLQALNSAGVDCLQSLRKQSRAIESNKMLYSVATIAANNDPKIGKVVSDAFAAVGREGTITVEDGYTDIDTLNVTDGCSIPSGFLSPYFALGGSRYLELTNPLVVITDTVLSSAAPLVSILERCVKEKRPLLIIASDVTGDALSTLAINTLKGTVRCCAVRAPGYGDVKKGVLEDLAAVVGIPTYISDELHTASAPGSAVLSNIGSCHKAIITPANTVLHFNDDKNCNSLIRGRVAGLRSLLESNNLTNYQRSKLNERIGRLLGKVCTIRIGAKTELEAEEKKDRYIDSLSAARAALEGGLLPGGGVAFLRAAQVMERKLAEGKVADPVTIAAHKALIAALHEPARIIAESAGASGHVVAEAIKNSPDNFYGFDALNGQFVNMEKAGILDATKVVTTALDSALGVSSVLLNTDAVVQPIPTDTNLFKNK
UniProt Q9BKB8: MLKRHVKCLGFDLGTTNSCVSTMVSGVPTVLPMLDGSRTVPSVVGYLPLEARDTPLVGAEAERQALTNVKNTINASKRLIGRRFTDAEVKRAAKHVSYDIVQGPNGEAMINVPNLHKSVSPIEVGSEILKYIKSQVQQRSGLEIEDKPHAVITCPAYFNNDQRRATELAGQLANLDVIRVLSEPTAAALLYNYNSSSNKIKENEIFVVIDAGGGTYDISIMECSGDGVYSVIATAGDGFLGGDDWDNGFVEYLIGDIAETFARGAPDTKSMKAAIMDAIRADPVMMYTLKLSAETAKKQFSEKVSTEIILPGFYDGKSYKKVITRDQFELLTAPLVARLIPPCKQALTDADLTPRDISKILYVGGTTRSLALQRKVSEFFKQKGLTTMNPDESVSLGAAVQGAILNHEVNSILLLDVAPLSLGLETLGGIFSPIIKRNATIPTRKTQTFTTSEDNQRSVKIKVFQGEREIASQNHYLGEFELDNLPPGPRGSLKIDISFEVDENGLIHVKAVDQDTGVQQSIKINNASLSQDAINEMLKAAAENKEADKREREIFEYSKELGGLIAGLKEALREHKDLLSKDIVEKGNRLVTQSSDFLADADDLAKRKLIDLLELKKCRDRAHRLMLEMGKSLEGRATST

Assays:
Experiment in all cases: affinity purification with mass spectrometry; co-IP with limited cross-linking: trophozoites expressing C-terminally HA-tagged bait fixed in 2.25% formaldehyde, RIPA lysis and sonication, anti-HA agarose beads at 4°C, eluate on SDS-PAGE and LC-MS/MS; hits filtered against a control co-IP from non-transgenic WB cells; high, medium or relaxed stringency as told
[1] = target: GlIscS-HA (HA-tagged cysteine desulfurase) (G. lamblia) (UniProt A8B326)
[2] = target: GlTom40-HA (C-terminally HA-tagged G. lamblia Tom40 homologue) (G. lamblia) (UniProt D3KGX1)
[3] = target: HA-tagged MOMTiP-1 (Gl50803_29147) (G. lamblia) (UniProt A8B2G6)
[4] = target: HA-tagged MOMTiP-3 (Gl50803_14939) (G. lamblia) (UniProt A8B8F2)
[5] = target: HA-tagged MOMTiP-4 (Gl50803_9296) (G. lamblia) (UniProt A8BBQ8)
[6] = target: HA-tagged Qb-SNARE 4 (MOMTiP-7, Gl50803_5785) (G. lamblia) (UniProt A8B2J8)

Substance	binding [1]	binding [2]	binding [3]	binding [4]	binding [5]	binding [6]
GlIscA (from UniProt A8BCH8)	–	–	–	–	binds	–
GlIscU (NifU-like protein; ORF Gl50803_15196) (from UniProt A0A644F9M5)	binds	binds	binds	–	–	–
GlQb-SNARE 3 (putative Sec20, ORF Gl50803_5161) (from UniProt A8BI30)	–	binds	–	–	–	–
GlTom40 (endogenous) (from UniProt D3KGX1)	binds	–	binds	binds	binds	binds
MOMTiP-1 (endogenous) (from UniProt A8B2G6)	–	binds	–	binds	–	binds
MOMTiP-3 (endogenous) (from UniProt A8B8F2)	–	binds	binds	–	–	binds
MOMTiP-5 (from UniProt A8BFG3)	–	binds	–	–	–	binds
MOMTiP-6 (from UniProt A8B8T7)	–	binds	–	–	–	–
MOMTiP-8 (from UniProt A8BNI9)	–	binds	–	–	–	binds
MOMTiP-10 (from UniProt A8BZ59)	–	binds	–	–	–	–
MOMTiP-13 (from UniProt A8B6Z3)	–	binds	–	–	–	–
axoneme-associated GASP-180 protein Gl50803_16745 (from UniProt A8BBT5)	–	–	binds	–	–	–
cysteine desulfurase (IscS; Gl50803_14519) (endogenous) (from UniProt A8B326)	–	–	binds	–	binds	–

Further lines, results first:

binding [1]	binding [2]	binding [3]	binding [4]	binding [5]	binding [6]	Substance
binds	binds	binds	binds	binds	binds	G. lamblia dynamin related protein (GlDRP) (ORF Gl50803_14373) (from UniProt E2RU04)
binds	binds	binds	binds	–	–	G. lamblia oxidoreductase 1 (ORF Gl50803_91252) (from UniProt A8B4Q8)
–	–	binds	–	–	–	Gl50803_17276 (from UniProt D3KGB2)
–	binds	–	binds	–	binds	MOMTiP-2 (from UniProt A8BBD0)
–	binds	–	–	–	–	MOMTiP-4 (endogenous) (from UniProt A8BBQ8)
–	binds	binds	–	–	–	MOMTiP-7 (Qb-SNARE 4) (endogenous) (from UniProt A8B2J8)
–	binds	–	binds	–	binds	MOMTiP-9 (from UniProt A8BRP6)
–	binds	–	–	–	–	MOMTiP-11 (from UniProt A8B690)
–	binds	–	–	–	–	MOMTiP-12 (from UniProt A8B5M1)
–	–	–	–	–	binds	Type III DnaJ protein Gl50803_9751 (from UniProt A8BE60)
binds	–	binds	–	–	–	[2Fe-2S] ferredoxin (Gl50803_27266) (from UniProt E2RU02)
binds	binds	binds	–	–	–	chaperonin 60 (Cpn60; ORF Gl50803_103891) (from UniProt E2RTS2)
binds	binds	binds	–	binds	–	mitochondrial HSP70 (ORF Gl50803_14581) (from UniProt Q9BKB8)
